# In patent publication US20230011052A1, “METHOD AND COMPOSITIONS FOR REGULATED ARMORING OF CELLS” (Senti Biosciences, Inc., priority 2019, published 2023):
# At least one structure is not confirmed: it was looked up by name or label, or the drawing left a doubt.
# Molecular target: T1, NS3 protease (Hepatitis C virus genotype 1a, UniProt P26664, A1066T/I1179L/T1080A)
# T1 construct: expressed in transfected cells; host or cells: donor-derived CD4/CD8 T cells (A20, A28) and NK cells from donor PBMCs (A23), virally transduced
# Assay type: cell-based, hepatitis C virus (HCV)
# Settings: grazoprevir:elbasvir 2:1
structure (smiles),measurement,value
COC(=O)N[C@H](C(=O)N1CCC[C@H]1c1nc(-c2ccc3c(c2)O[C@@H](c2ccccc2)n2c-3cc3cc(-c4c[nH]c([C@@H]5CCCN5C(=O)[C@@H](NC(=O)OC)C(C)C)n4)ccc32)c[nH]1)C(C)C [elbasvir],effect of elbasvir on grazoprevir induction of IL-12,did not impact grazoprevir potency
